Laboratory results reported in the supplement of paper PMC9233669.
This sample is rich in variants without activity.

Tests used:
biotinyl-Leu-oxazolone = assay: self-aminoacylation, catalytic enhancement (BLO) (fold over background); higher = more active; k-Seq, kA / k0A0; sequences stand for … in GGGAAUGGAUCCACAUCUACGAAUUC…UUCACUGCAGACUUGACGAAGCUG
Summary of the method: (§1)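 Mutagenized RNA pools with a 21-nt variable region (0.43 μM) reacted with each biotinyl-aminoacyl-oxazolone at 2–1250 μM. Reactions ran in 50 μL HEPES/NaCl/KCl/MgCl2/CaCl2 buffer with 5% acetonitrile, pH 6.9–7.0, for 90 minutes at room temperature. Streptavidin-captured RNA was quantified by triplicate qPCR and Illumina sequencing, and per-sequence fraction reacted was fit to a pseudo-first-order model with 1000 bootstraps. Catalytic enhancement is median kA divided by the uncatalyzed rate, the low-activity peak of a bimodal Gaussian fit.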

biotinyl-Ile-oxazolone = assay: self-aminoacylation, catalytic enhancement (BIO) (fold over background); higher = more active; k-Seq, kA / k0A0; sequences stand for … in GGGAAUGGAUCCACAUCUACGAAUUC…UUCACUGCAGACUUGACGAAGCUG
Summary of the method: as §1

biotinyl-Phe-oxazolone = assay: self-aminoacylation, catalytic enhancement (BFO) (fold over background); higher = more active; k-Seq, kA / k0A0; sequences stand for … in GGGAAUGGAUCCACAUCUACGAAUUC…UUCACUGCAGACUUGACGAAGCUG
Summary of the method: as §1

biotinyl-Trp-oxazolone = assay: self-aminoacylation, catalytic enhancement (BWO) (fold over background); higher = more active; k-Seq, kA / k0A0; sequences stand for … in GGGAAUGGAUCCACAUCUACGAAUUC…UUCACUGCAGACUUGACGAAGCUG
Summary of the method: as §1

biotinyl-Val-oxazolone = assay: self-aminoacylation, catalytic enhancement (BVO) (fold over background); higher = more active; k-Seq, kA / k0A0; sequences stand for … in GGGAAUGGAUCCACAUCUACGAAUUC…UUCACUGCAGACUUGACGAAGCUG
Summary of the method: as §1

biotinyl-Met-oxazolone = assay: self-aminoacylation, catalytic enhancement (BMO) (fold over background); higher = more active; k-Seq, kA / k0A0; sequences stand for … in GGGAAUGGAUCCACAUCUACGAAUUC…UUCACUGCAGACUUGACGAAGCUG
Summary of the method: as §1

| Sequence | self-aminoacylation (biotinyl-Leu-oxazolone) | self-aminoacylation (biotinyl-Ile-oxazolone) | self-aminoacylation (biotinyl-Phe-oxazolone) | self-aminoacylation (biotinyl-Trp-oxazolone) | self-aminoacylation (biotinyl-Val-oxazolone) | self-aminoacylation (biotinyl-Met-oxazolone) |
| --- | --- | --- | --- | --- | --- | --- |
| AUUACCCUGAUCAUCGAUUGA [Fam2.1 aminoacylation ribozyme variant] | 0.901 | 0.958 | 0.675 | 0.45 | 1.02 | 0.925 |
| AUUACCCUGAUCCUCGAGUGA [Fam2.1 aminoacylation ribozyme variant] | 3.73 | 2.35 | 8.63 | 3.91 | 2.52 | 3.7 |
| AUUACCCUGCUCAUCGAGUGG [Fam2.1 aminoacylation ribozyme variant] | 1.09 | 0.831 | 0.52 | 0.578 | 0.81 | 1 |
| AUUACCCUGGACAUCGAGAGA [Fam2.1 aminoacylation ribozyme variant] | 0.882 | 0.961 | 0.444 | 1.19 | 0.86 | 0.429 |
| AUUACCCUGGCAAUCGAGUGA [Fam2.1 aminoacylation ribozyme variant] | 5.38 | 2.78 | 28.2 | 5.92 | 3.02 | 4.83 |
| AUUACCCUGGCGAUCGAGUGA [Fam2.1 aminoacylation ribozyme variant] | 4.77 | 2.12 | 24.3 | 4.59 | 2.69 | 4.06 |
| AUUACCCUGGGCAUCGACUGA [Fam2.1 aminoacylation ribozyme variant] | 0.443 | 0.657 | 0.576 | 0.53 | 0.685 | 0.578 |
| AUUACCCUGGUCAUCAAGUGG [Fam2.1 aminoacylation ribozyme variant] | 0.864 | 0.833 | 0.944 | 0.439 | 0.848 | 0.856 |
| AUUACCCUGGUCAUCGAAAGA [Fam2.1 aminoacylation ribozyme variant] | 0.733 | 0.788 | 0.407 | 0.327 | 0.8 | 0.719 |
| AUUACCCUGGUCAUCGACCGA [Fam2.1 aminoacylation ribozyme variant] | 1.89 | 1.42 | 1.14 | 1.36 | 1.49 | 1.08 |
| AUUACCCUGGUCAUCGAGCGG [Fam2.1 aminoacylation ribozyme variant] | 2.9 | 1.95 | 1.12 | 1.61 | 1.8 | 2.38 |
| AUUACCCUGGUCAUCGAGGGC [Fam2.1 aminoacylation ribozyme variant] | 1.56 | 1.31 | 1.09 | 1.12 | 1.24 | 1.77 |
| AUUACCCUGGUCAUCGAGGGU [Fam2.1 aminoacylation ribozyme variant] | 1.58 | 1.03 | 1.28 | 1.9 | 1.3 | 1.86 |
| AUUACCCUGGUCAUCGAUUCA [Fam2.1 aminoacylation ribozyme variant] | 0.884 | 0.92 | 0.588 | 1.57 | 1.1 | 0.689 |
| AUUACCCUGGUCAUCUAGCGA [Fam2.1 aminoacylation ribozyme variant] | 1.44 | 1.12 | 1.3 | 0.974 | 1.37 | 1.31 |
| AUUACCCUGGUCAUGAAGUGA [Fam2.1 aminoacylation ribozyme variant] | 7.74 | 4.14 | 44.8 | 10.1 | 4.08 | 8.83 |
| AUUACCCUGGUCAUUGAGAGA [Fam2.1 aminoacylation ribozyme variant] | 0.703 | 0.852 | 1.04 | 0.648 | 0.867 | 0.854 |
| AUUACCCUGGUCAUUGAUUGA [Fam2.1 aminoacylation ribozyme variant] | 0.723 | 0.926 | 0.689 | 0.442 | 0.925 | 0.758 |
| AUUACCCUGGUCCUCGAAUGA [Fam2.1 aminoacylation ribozyme variant] | 1.1 | 1.07 | 0.3 | 1.04 | 1.01 | 1.17 |
| AUUACCCUGGUCCUCGAGUUA [Fam2.1 aminoacylation ribozyme variant] | 1.12 | 0.881 | 0.602 | 0.539 | 1.3 | 0.807 |
| AUUACCCUGGUCGUCGAGAGA [Fam2.1 aminoacylation ribozyme variant] | 0.603 | 0.762 | 0.37 | 0.797 | 0.777 | 0.639 |
| AUUACCCUGGUCGUCGAGCGA [Fam2.1 aminoacylation ribozyme variant] | 2.17 | 1.22 | 3.35 | 1.4 | 1.58 | 1.56 |
| AUUACCCUGGUCGUCGAGUAA [Fam2.1 aminoacylation ribozyme variant] | 1.68 | 1.27 | 1.08 | 0.721 | 1.12 | 1.3 |
| AUUACCCUGGUCGUCGAUUGA [Fam2.1 aminoacylation ribozyme variant] | 0.584 | 0.748 | 0.38 | 0.382 | 0.662 | 0.704 |
| AUUACCCUGGUCUUCGAGAGA [Fam2.1 aminoacylation ribozyme variant] | 0.957 | 0.978 | 0.41 | 0.529 | 1.26 | 0.888 |
| AUUACCCUGGUCUUCGAGUGC [Fam2.1 aminoacylation ribozyme variant] | 1.37 | 1.08 | 0.594 | 1.25 | 1.28 | 0.984 |
